Positions count from the first letter of the chain named. Results are given in words; binding and its absence hold for the method and conditions named. In cells and extracts the contact can be indirect. Some results given as binding are weak or reduced against the parent protein; the word gives no strength. Sequences can lack the tags named with a protein.

Sequences of proteins named here, by UniProt entry; tags and fusion partners are left off.
UniProt P11940: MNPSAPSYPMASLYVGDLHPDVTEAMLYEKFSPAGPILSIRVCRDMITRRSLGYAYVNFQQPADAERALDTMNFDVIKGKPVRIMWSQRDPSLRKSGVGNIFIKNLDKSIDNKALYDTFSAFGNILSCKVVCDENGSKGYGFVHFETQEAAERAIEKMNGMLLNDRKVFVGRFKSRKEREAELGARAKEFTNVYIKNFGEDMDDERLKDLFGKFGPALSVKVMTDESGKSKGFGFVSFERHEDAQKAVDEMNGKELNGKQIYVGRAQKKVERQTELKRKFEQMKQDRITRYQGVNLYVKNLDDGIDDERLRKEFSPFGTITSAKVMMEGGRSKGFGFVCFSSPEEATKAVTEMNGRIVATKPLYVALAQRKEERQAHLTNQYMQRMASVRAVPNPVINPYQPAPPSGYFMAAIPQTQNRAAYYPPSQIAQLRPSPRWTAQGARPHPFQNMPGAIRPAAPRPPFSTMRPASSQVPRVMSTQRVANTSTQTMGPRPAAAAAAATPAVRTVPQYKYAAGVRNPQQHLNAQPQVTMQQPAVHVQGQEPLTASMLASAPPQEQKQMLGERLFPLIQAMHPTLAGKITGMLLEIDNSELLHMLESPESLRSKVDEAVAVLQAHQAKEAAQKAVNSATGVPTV

For one substance, binding results are on record in article PMC5606997.

One experiment concerns the target T1, FAM46C^mut-GFP (human) (UniProt Q5VWP2).
T1 sequence: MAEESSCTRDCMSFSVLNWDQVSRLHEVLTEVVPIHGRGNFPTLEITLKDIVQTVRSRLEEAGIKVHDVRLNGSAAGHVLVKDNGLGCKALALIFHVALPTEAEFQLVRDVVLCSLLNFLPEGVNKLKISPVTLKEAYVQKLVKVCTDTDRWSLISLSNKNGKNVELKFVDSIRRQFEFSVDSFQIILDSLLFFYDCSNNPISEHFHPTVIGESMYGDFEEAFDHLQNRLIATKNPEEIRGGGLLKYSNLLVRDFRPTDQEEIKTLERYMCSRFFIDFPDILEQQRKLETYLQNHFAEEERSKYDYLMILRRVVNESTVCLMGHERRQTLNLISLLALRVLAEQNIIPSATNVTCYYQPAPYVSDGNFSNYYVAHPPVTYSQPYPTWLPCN
The experiment can be described thus: co-IP; GFP-tagged FAM46C from stable HEK293 cell lines, western blot of BCCIPβ and PABPC1; low ionic strength (physiological salt concentration). (Immunoblotting shows a protein as a band on a membrane.)

Experiment [1] has as its target T2, FAM46C^WT-GFP (human) (UniProt Q5VWP2).
T2 sequence: T1 sequence with A90D, A92D
The description is as above.

Experiment [2] has as its target T2, FAM46C^WT-GFP (human). The experiment can be described thus: co-IP; GFP-tagged FAM46C from stable HEK293 cell lines, western blot of BCCIPβ and PABPC1; high ionic strength.
Experiment [3] deals with T2, FAM46C^WT-GFP (human). The experiment can be described thus: co-IP; FAM46C^WT-GFP from transduced SKMM1 and H929 MM cell lines, western blot of BCCIPβ and PABPC1.

Regarding “cytoplasmic poly(A)-binding protein PABPC1 (from UniProt P11940 1-636)”, the binding entry is “binds” in the experiment with FAM46C^mut-GFP (human), “binds” with FAM46C^WT-GFP (human) [1], “no binding (condition: high ionic strength)” with FAM46C^WT-GFP (human) [2] and “binds” with FAM46C^WT-GFP (human) [3].
